From ChEMBL document CHEMBL3988442, “University of Dundee, Small-Polar-MMV Screening Library” (2021).

Protein sequences, listed by entry. Tags and fused reporters are not part of them. Residues count along the entry.
UniProt Q4DA54, 1-478: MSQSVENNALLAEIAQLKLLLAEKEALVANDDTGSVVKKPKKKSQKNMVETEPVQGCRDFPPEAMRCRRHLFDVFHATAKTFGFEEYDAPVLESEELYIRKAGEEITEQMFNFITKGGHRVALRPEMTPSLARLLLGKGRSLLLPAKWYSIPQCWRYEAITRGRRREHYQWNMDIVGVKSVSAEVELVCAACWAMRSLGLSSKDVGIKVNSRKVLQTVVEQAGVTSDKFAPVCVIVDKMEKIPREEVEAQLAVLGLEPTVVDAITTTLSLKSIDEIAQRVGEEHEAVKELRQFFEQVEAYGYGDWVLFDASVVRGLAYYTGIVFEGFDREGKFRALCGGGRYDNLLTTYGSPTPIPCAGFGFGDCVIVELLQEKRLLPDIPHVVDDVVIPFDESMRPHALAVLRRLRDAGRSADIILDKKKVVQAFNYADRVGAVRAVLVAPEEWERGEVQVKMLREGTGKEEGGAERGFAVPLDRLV
UniProt Q8IDJ8, 1-583: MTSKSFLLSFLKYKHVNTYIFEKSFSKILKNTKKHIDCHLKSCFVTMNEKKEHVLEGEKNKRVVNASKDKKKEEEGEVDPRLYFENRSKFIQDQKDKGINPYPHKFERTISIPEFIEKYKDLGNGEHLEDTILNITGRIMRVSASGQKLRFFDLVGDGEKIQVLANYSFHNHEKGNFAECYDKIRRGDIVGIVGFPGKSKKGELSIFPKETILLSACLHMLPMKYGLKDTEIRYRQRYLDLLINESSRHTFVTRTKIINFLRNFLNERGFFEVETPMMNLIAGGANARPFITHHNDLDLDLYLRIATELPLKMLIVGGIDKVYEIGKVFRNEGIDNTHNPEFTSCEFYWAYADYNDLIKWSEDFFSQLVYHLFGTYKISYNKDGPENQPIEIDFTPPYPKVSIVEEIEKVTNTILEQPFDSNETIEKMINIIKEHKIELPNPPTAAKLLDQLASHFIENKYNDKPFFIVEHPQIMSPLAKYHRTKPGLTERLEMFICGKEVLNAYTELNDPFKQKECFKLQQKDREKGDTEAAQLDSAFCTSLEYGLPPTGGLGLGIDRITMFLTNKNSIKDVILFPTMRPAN

A: 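Enzyme assay of histidyl-tRNA synthetase; the read-out is not stated. Target: Histidine-tRNA ligase, Trypanosoma cruzi CL Brener (UniProt Q4DA54). Tested at 30 µM. Direction is inferred from retests: higher values go with stronger inhibition. Size under these conditions: about 69,000 compounds, about 31 of them at 50% or above in at least one test.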
B: 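Enzyme assay of the cytosolic lysyl-tRNA synthetase in 384-well plates, read by luminescence. Target: Lysine-tRNA ligase, Plasmodium falciparum 3D7 (UniProt Q8IDJ8). Compounds at 30 µM. Higher reads as stronger inhibition, judged from the few compounds that gave an IC50. About 69,000 compounds were tested under these conditions; 0.071% (about 49) showed 50% or more at least once.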

Values are the deposited “Percent Effect”, in %.
How 0% and 100% were set is not recorded. Most values in the screen are low, and negative values occur.
The compounds are a random part of those screened.

SMILES | A | B
Cc1nnc(CN(C)CC2CCCCC2)o1 | 2.97 | -4.079
Cc1cnn(C(C)C2CC2)c1NC(=O)c1ncccc1O (centres undefined) | 8.163 | 0.1982
Cn1ccnc1C1(O)CCCN(Cc2ccncc2)CC1 (centres undefined) | 8.333 | 4.741
CC1=CCN(S(=O)(=O)c2cccc(C(=O)N3CCOCC3)c2)CC1 | 3.867 | 2.468
CCCc1noc(CCC(=O)N2CCCC2c2ccncc2)n1 (centres undefined) | 2.857 | 0.3289
COc1cccc2[nH]c(C(=O)N3CCNCC3C(N)=O)cc12 (centres undefined) | 3.788 | -0.7683
COc1ncccc1CNC1CCc2c(ccc(=O)n2CC2CC2)C1 (centres undefined) | 6.533 | 4.067
Cc1cnn(C2CCCN(C(=O)Cc3n[nH]c4ccccc34)C2)c1 (centres undefined) | 3.458 | 0.7452
COc1ncccc1CN1C[C@@H]2COC[C@]2(COCC(=O)N(C)C)C1 | -6.098 | 1.368
CC(NC(=O)C1CC1)c1cc(O)nc(-c2cccnc2)n1 (centres undefined) | 3.788 | 0.1274
CCN(CC(=O)NC(C)C)C(=O)c1csc(Cc2ccccc2)n1 | 7.407 | 4.296
OCCn1nccc1C1CCN(CCOc2cccc(F)c2)CC1 | 5.78 | 1.217
CN(C)S(=O)(=O)Nc1ccc(Oc2ccc3c(c2)OCO3)cc1 | 8.911 | 1.19
COc1cc(CN2CCn3c(CO)nnc3C2)ccc1OC(C)C | 4.478 | -0.9754
O=C(NC1CCC1)[C@H]1C[C@H]2NCCO[C@@H]2C1 | 5.464 | -0.7285
Cc1noc(C)c1CNC[C@@]1(COc2cccnc2)C[C@@H](O)[C@@H](O)C1 | 8.696 | 4.212
O=S(=O)(c1cccs1)N1CCN(Cc2nc(-c3ccco3)cs2)CC1 | 10.84 | 5.351
Cc1oncc1C(=O)N1CCC2(C1)CN(c1cccnc1)C(=O)CN2C (centres undefined) | 5.946 | 3.346
CCOCC(=O)NCC1(NC(C)c2ccccc2)CCOCC1 (centres undefined) | 6.548 | 1.379
CC(Cn1ccnc1)NC(=O)Nc1ccccn1 (centres undefined) | 3.529 | -1.748
CC(CS(C)(=O)=O)N(C(=O)CCc1cccc(F)c1)C1CC1 (centres undefined) | -1.657 | -0.205
CCN(Cc1ccncc1)C(=O)c1cn(CCCc2ccccc2)nn1 | 3.614 | 4.654
Cc1nc(CN2CCN(c3ccc(SC(C)C)nn3)CC2)cs1 | -1.724 | 4.635
CCC(C)Oc1ccc(CNCCNC(C)=O)cc1Cl (centres undefined) | 8.04 | 2.751
CN(CCC(F)(F)F)c1nc2ccccc2c(=O)[nH]1 | 2.618 | -3.643
O=C(c1ccc[nH]1)N1C[C@H](OCc2cccnc2)[C@H]2COC[C@H]21 | 2.674 | 11.84
CN1CCn2c(-c3ccccc3)cnc2C12CCN(CC1CC1)CC2 | 3.743 | 3.588
O=C(NCC1(CO)CC1)NC(c1nccs1)C1CC1 (centres undefined) | 4.386 | 6.011
c1cncc(N2CCOC3(CCCN(c4nncs4)C3)C2)c1 (centres undefined) | 8.602 | 3.075
Cc1cc(NC(=O)Cn2nc(C)c(C#N)c2N)ccc1Br | 2.703 | 1.137
O=C([C@@H]1Cc2[nH]cnc2CN1Cc1cc2ccccc2o1)N1CCCC1 | 5.941 | 5.883
CN(C)CCn1c2c(ccc1=O)CC(NCc1cnn(C)c1)CC2 (centres undefined) | 2.513 | 3.223
Cc1c(Cc2ccccc2)c(O)nc2nc(N3CCOCC3)nn12 | 1.327 | 0.3087
O=C(NC1CC1)C1CCc2nnc(C3CC3)n21 (centres undefined) | -0.5917 | -1.727
CCc1n[nH]c(=O)c(C(=O)N2CCSCC2)c1CC | 1.242 | 1.888
CCCN1C[C@H]2CC[C@@H]1CN(Cc1cccc(O)c1)C2 | 6.522 | 6.69
CC1CCN(CCNC(=O)c2scnc2Cl)CC1 | 0.578 | -2.302
CC(C)NC(=O)CCNC(=O)Nc1cccc(-c2nccn2C)c1 | 3.175 | 5.632
CS(=O)(=O)NC1CC2(CCN(CCF)CC2)Oc2ccccc21 (centres undefined) | 8.411 | -1.32
O=C(CC1NC(N2CCc3ccccc32)=NC1=O)Nc1ccccc1 (centres undefined) | 9.375 | 2.487
COc1cccc(CN(C)C(=O)CN2CCN(CCO)CC2)c1 | 4.564 | 3.181
COc1ccc(CN(Cc2cnc(N)nc2)CC2CCCO2)c(OC)c1 (centres undefined) | 6.383 | 3.289
CC(C)NC(=O)[C@H]1C[C@H]2OCC[C@H]2N(Cc2ccc3ccccc3n2)C1 | 11.76 | 0.112
N#Cc1cccc(CN2CC[C@@H]3[C@@H]2CC(=O)N3CCN2CCCC2)c1 | 3.922 | 4.568
COc1ccc(C(C)N(C)Cc2c(C3CC3)[nH]c3ncccc23)cc1 (centres undefined) | 5.429 | 0.4525
C[C@H]1C[C@H]2CN(C(=O)c3ccncn3)CC[C@H]2O1 | -9.091 | 2.276
CCc1nc2c(c(NC3CCC3)n1)CCN(C(=O)CO)CC2 | 3.863 | 0.1527
O=C(c1cc2c(s1)CCC2)N1CCCC(c2cnccn2)C1 (centres undefined) | 7.895 | 1.129
COCCNc1ncc(-c2cccc(F)c2)c(-c2nccn2C)n1 | 0.3831 | -1.969
COc1cccc([C@@H](C)n2ccnc2-c2cc3n(n2)CCNC3)c1 | 8.929 | 3.413
Cc1ccccc1CNC(=O)Cn1ncc2c1c(C)nn2C | -0.8696 | 3.185
CCc1nnc(Nc2cccc(C3CCN(CCO)CC3)n2)s1 | -0.5405 | 0.6889
CCCNC(=O)C1CCN(CC(O)c2ccccc2)CC1 (centres undefined) | 3.879 | 2.753
O=C(Cc1cnccn1)N1CCC(c2nccn2CC2CC2)CC1 | -2.513 | -5.479
CC(NC(N)=O)C(=O)NCc1ccnc(Oc2ccc(F)cc2)c1 (centres undefined) | 3.941 | 4.753
Cc1ccnc(OC[C@]23COC[C@H]2CN(C(=O)Cc2ccsc2)C3)n1 | 8.411 | -0.1158
CCc1nccn1-c1cccc(C2CCCN(C3CCCCC3)C2)n1 (centres undefined) | 30.77 | 5.019
CC(C)c1noc(CCCC(=O)NC(C)c2ccccn2)n1 (centres undefined) | -1.775 | 4.588
CS(=O)(=O)NCC1CCN(Cc2cc3ccccc3[nH]c2=O)C1 (centres undefined) | 8.108 | 6.326
CCOCCC(=O)N1CCCN(c2ccccc2C)CC1 | 9.783 | 2.933

Once more, the final 4:

SMILES,A,B
CCc1nccn1-c1cccc(C2CCCN(C3CCCCC3)C2)n1 (centres undefined),30.77,5.019
CC(C)c1noc(CCCC(=O)NC(C)c2ccccn2)n1 (centres undefined),-1.775,4.588
CS(=O)(=O)NCC1CCN(Cc2cc3ccccc3[nH]c2=O)C1 (centres undefined),8.108,6.326
CCOCCC(=O)N1CCCN(c2ccccc2C)CC1,9.783,2.933